PubChem BioAssay AID1259271, Sanger Institute, 2017
The whole screen tested 160 reagents; below is a part drawn at random. 124 of them (78%) count as active. 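Each row is one of four siRNAs per gene; gene-level confirmation, requiring two siRNAs in several cell lines, is not included.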 Reagents against one gene are numbered here. Not all columns of the deposit are shown. The record does not give: the amount of reagent, the time to read-out.

- Aim: 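Kinase knock-downs that deepen anchor drug effects in colorectal cancer cells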 (follow-up of hits)
- Cell system: RKO colorectal cancer cells
- Reagent: single siRNA against human genes
- Treatment: anchor drug added to each siRNA well, cetuximab 5 µg/ml, trametinib 10 nM or BYL719 1 µM, compared with DMSO vehicle; exposure length not given
- Measurement: 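Survival of cells relative to control pool 2 (non-targeting), replicate average, plus a synergy score for each anchor drug (trametinib 10 nM, cetuximab 5 µg/ml, BYL719 1 µM) compared with DMSO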
- Scale: synergy score with BYL719 and synergy score with cetuximab and synergy score with trametinib: higher = stronger synthetic lethality with the drug
- Hit rule: 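Called active if the synergy score passes 0.10 for one or more anchor drugs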
- Calls: active = synergy with at least one drug; inactive = no synergy with any drug

Depletion of PRAG1 (PEAK1 related, kinase-activating pseudokinase 1) #1 resulted in: synergy score with BYL719 = 0.0763; synergy score with cetuximab 0.233; synergy score with trametinib 0.174; active. Depletion of PRAG1 (PEAK1 related, kinase-activating pseudokinase 1) #2 came out at: synergy score with BYL719 = 0.236; synergy score with cetuximab 0.112; synergy score with trametinib 0.259; active. After knock-down of PRAG1 (PEAK1 related, kinase-activating pseudokinase 1) #3, the screen gave synergy score with BYL719 = 0.00971; synergy score with cetuximab 0.0273; synergy score with trametinib 0.0879; inactive. Knock-down of PRAG1 (PEAK1 related, kinase-activating pseudokinase 1) #4 gave: synergy score with BYL719 = 0.178; synergy score with cetuximab 0.286; synergy score with trametinib 0.231; active.

In a second layout: results already given.
PRAG1 (PEAK1 related, kinase-activating pseudokinase 1) #1
- synergy score with BYL719: 0.0763
- synergy score with cetuximab: 0.233
- synergy score with trametinib: 0.174
- activity call: active

PRAG1 (PEAK1 related, kinase-activating pseudokinase 1) #2
- synergy score with BYL719: 0.236
- synergy score with cetuximab: 0.112
- synergy score with trametinib: 0.259
- activity call: active

Next results follow:
Silencing of GTF2H1 (general transcription factor IIH subunit 1) #1 gave: synergy score with BYL719 = -0.045; synergy score with cetuximab 0.0616; synergy score with trametinib 0.189; active. GTF2H1 (general transcription factor IIH subunit 1) #2 gave synergy score with BYL719 = -0.269; synergy score with cetuximab 0.0679; synergy score with trametinib 0.119; active. For GTF2H1 (general transcription factor IIH subunit 1) #3, the entry reads synergy score with BYL719 = -0.211; synergy score with cetuximab -0.155; synergy score with trametinib -0.138; inactive. GTF2H1 (general transcription factor IIH subunit 1) #4 gave synergy score with BYL719 = -0.0242; synergy score with cetuximab 0.0517; synergy score with trametinib 0.212; active. Silencing of EPHA6 (EPH receptor A6) #1 came out at: synergy score with BYL719 = 0.0505; synergy score with cetuximab 0.0943; synergy score with trametinib 0.277; active. With knock-down of EPHA6 (EPH receptor A6) #2, the record shows synergy score with BYL719 = 0.285; synergy score with cetuximab 0.334; synergy score with trametinib 0.395; active.

Silencing of EPHA6 (EPH receptor A6) #3 came out at: synergy score with BYL719 = 0.121; synergy score with cetuximab 0.242; synergy score with trametinib 0.397; active. EPHA6 (EPH receptor A6) #4 showed synergy score with BYL719 = 0.183; synergy score with cetuximab 0.23; synergy score with trametinib 0.212; active.
